# According to patent publication US20030144346A1, “Methods and compositions for regulation of 5-alpha reductase activity” (priority 1997, published 2003):
# At least one structure is not confirmed: it was looked up by name or label, or the drawing left a doubt.
# Experiments:
# [1] = biological target: T1, type 1 human 5α-reductase (HRED1) (Homo sapiens, UniProt P18405); assay: Whole cell assay of 5α-reductase, type 1 isoenzyme; type: cell-based; design: expressed in transfected cells; host or cells: rat 1A cells infected with pMV7 retrovirus;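 also: intact rat 1A cells engineered to express the human type 1 5α-reductase isozyme serve as the enzyme source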
# T1 sequence (P18405 1-259): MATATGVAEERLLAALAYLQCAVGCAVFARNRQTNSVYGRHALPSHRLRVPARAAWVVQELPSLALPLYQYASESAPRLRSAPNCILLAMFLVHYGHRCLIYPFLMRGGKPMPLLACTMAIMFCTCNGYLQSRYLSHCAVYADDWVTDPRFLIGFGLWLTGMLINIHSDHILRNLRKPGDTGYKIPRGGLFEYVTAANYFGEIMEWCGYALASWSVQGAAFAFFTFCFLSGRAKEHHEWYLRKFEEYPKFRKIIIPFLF
# [2] = biological target: T2, type 2 human 5α-reductase (HRED2) (Homo sapiens, UniProt P31213); assay: Whole cell assay of 5α-reductase, type 2 isoenzyme; type: cell-based; design: expressed in transfected cells; host or cells: rat 1A cells infected with pMV7 retrovirus;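 also: intact rat 1A cells genetically modified to carry human type 2 5α-reductase served as the enzyme source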
# T2 sequence (P31213 1-254): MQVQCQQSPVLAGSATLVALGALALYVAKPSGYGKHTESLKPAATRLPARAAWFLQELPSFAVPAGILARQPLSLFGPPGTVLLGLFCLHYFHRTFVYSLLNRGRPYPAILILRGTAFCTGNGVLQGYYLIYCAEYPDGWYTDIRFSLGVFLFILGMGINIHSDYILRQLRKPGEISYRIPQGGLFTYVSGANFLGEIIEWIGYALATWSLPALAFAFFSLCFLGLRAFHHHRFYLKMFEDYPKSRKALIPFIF
structure (smiles),measurement,setting,value
COc1cc(CCC(=O)CC(=O)CCc2ccc(O)c(OC)c2)ccc1O [Tetrahydrocurcumin],"inhibitory activity in the whole cell assay, type 1 isoenzyme, in words",[1],significant activity
same,"inhibitory activity in the whole cell assay, type 2 isoenzyme, in words",[2],significant activity
